Where a name gives a salt, the structure may show the parent alone. ± gives the standard deviation of the averaged measurements. This is one part of the list. Single values are uncertain here, since repeats match poorly.
These compounds were tested on A549 (assay: surface PD-L1 immunofluorescence intensity relative to IFN-gamma-only control (ratio); higher = more PD-L1 expression). Settings: 10 µM; exposure time 24 h; IFN-gamma 100 ng/mL.

| SMILES | surface PD-L1 immunofluorescence intensity |
| --- | --- |
| CCN[C@H]1CN(CCCOC)S(=O)(=O)c2sc(S(N)(=O)=O)cc21 [Brinzolamide] | 0.947 |
| CC[N+](C)(CC)CCOC(=O)C1c2ccccc2Oc2ccccc21 [Methantheline bromide] | 1.16 |
| O=C(O)CN1C(=O)c2cccc3cccc(c23)C1=O [Alrestatin] | 1.05 |
| CCCCN(CCCC)CCCOC(=O)c1ccc(N)cc1 [Butacaine] | 0.981 |
| Cc1ccc(C(=O)c2ccc(CC(=O)O)n2C)cc1 [Tolmetin sodium salt dihydrate] | 1.02 |
| CC(=O)OCC(=O)[C@@]1(O)CC[C@H]2[C@@H]3CCC4=CC(=O)CC[C@]4(C)[C@@]3(F)[C@@H](O)C[C@@]21C [Fludrocortisone acetate] | 0.802 |
| CC(=Cc1ccc(C(=O)O)cc1)c1ccc2c(c1)C(C)(C)CCC2(C)C | 1.16 ± 0.2 |
| COc1ccc([C@@H]2CC(=O)c3c(O)cc(O)cc3O2)cc1O [Hesperetin] | 1.03 |
| CN(C)CCCN1c2ccccc2Sc2ccc(C(F)(F)F)cc21 [Triflupromazine hydrochloride] | 0.891 |
| NC(=O)c1ccc(N(C(N)=O)c2c(F)cccc2F)nc1-c1ccc(F)cc1F | 0.992 |
| C[N+]1(C)CCC(OC(=O)C(c2ccccc2)c2ccccc2)CC1 | 1.07 |
| O=Cc1c2[nH]c3ccccc3c2cc2[nH]c3ccccc3c12 [6-Formylindolo [3,2-B] carbazole] | 0.99 |
| CC(=O)Oc1ccccc1C(=O)Nc1ncc([N+](=O)[O-])s1 [Nitazoxanide (Alinia, Annita)] | 0.989 |
| CCN(CC)CCOC(=O)C1(C2CCCCC2)CCCCC1 [Dicyclomine hydrochloride] | 0.892 |
| CC(N/C(=N\C#N)Nc1ccncc1)C(C)(C)C (centres undefined) [Pinacidil] | 0.895 |
| CC(N/C(=N\C#N)Nc1ccncc1)C(C)(C)C (centres undefined) [Pinacidil H2O] | 0.977 |
| CCCCC(O)c1ccccc1 (centres undefined) [Fenipentol] | 0.952 |
| O=C1c2c(O)cccc2Cc2cccc(O)c21 [Anthralin] | 1.08 |
| COc1nccc(-c2c(-c3ccc(F)cc3)ncn2C2CCC(O)CC2)n1 (centres undefined) | 0.968 |
| COc1c(C)c(C(=O)c2ccc(N)c(C(=O)O)c2)n2ccccc12 | 1.1 |
| COc1ccc2c(c1)CCC1C2CCC2(C)C(NCCCCCCN3C(=O)C=CC3=O)CCC12 (centres undefined) | 1.08 |
| CC(C)C[C@H](NP(=O)(O)O[C@@H]1O[C@@H](C)[C@H](O)[C@@H](O)[C@H]1O)C(=O)N[C@@H](Cc1c[nH]c2ccccc12)C(=O)O [Phosphoramidon] | 0.883 |

Some of the entries above in another layout:
SMILES	surface PD-L1 immunofluorescence intensity
CCCCC(O)c1ccccc1 (centres undefined) [Fenipentol]	0.952
O=C1c2c(O)cccc2Cc2cccc(O)c21 [Anthralin]	1.08
COc1nccc(-c2c(-c3ccc(F)cc3)ncn2C2CCC(O)CC2)n1 (centres undefined)	0.968

Going on with the list.

| SMILES | surface PD-L1 immunofluorescence intensity |
| --- | --- |
| COc1cc(C(=O)OCCCN2CCCN(CCCOC(=O)c3cc(OC)c(OC)c(OC)c3)CC2)cc(OC)c1OC [Dilazep dihydrochloride] | 0.902 ± 0.13 |
| COC(=O)C1=C(C)NC(C)=C([N+](=O)[O-])C1c1ccccc1C(F)(F)F (centres undefined) | 0.958 |
| O/N=C/c1ccc(-c2ccc(O)c(F)c2)c(Cl)c1O | 1.07 |
| C[C@@H]1C[C@H]2[C@@H]3C[C@H](F)C4=CC(=O)C=C[C@]4(C)[C@@]3(F)[C@@H](O)C[C@]2(C)[C@@]1(O)C(=O)CO [Flumethasone] | 0.812 |
| O=C(O)c1ccc(O)c(O)c1 [Protocatechuic acid] | 0.924 |
| O=C(NC[C@H]1CN(c2ccc(N3CCOCC3=O)cc2)C(=O)O1)c1ccc(Cl)s1 [Rivaroxaban (Xarelto)] | 1.01 |
| O=C(O)Cc1ccc(-c2ccccc2)cc1 [Felbinac] | 1.06 |
| Cc1cc2c(cc1CC(=O)c1sccc1S(=O)(=O)Nc1onc(C)c1Cl)OCO2 | 0.985 |
| O=C(O)c1cn(-c2ccc(F)cc2)c2cc(N3CCNCC3)c(F)cc2c1=O [Sarafloxacin] | 0.949 |
| COc1cccc(/C=N/N=C/c2cccc(OC)c2)c1 | 1.08 |
| CC[C@H](/C=C/[C@@H](C)[C@H]1CC[C@H]2[C@@H]3CC=C4C[C@@H](O)CC[C@]4(C)[C@H]3CC[C@]12C)C(C)C [Stigmasterol (Stigmasterin)] | 1.15 |
| c1ccc(NCc2ccc(CNc3ccccn3)cc2)nc1 | 0.966 |
| Cc1nnc(C(=O)NC(C)(C)c2nc(C(=O)NCc3ccc(F)cc3)c(O)c(=O)n2C)o1 [Raltegravir (MK-0518)] | 1.04 |
| COc1c2occc2cc2ccc(=O)oc12 [Methoxsalen (Oxsoralen)] | 0.888 |
| NCc1ccccc1CC(=O)N[C@@H]1C(=O)N2C(C(=O)O)=C(CSc3nnnn3CC(=O)O)CS[C@H]12 [Ceforanide] | 1.04 |
| CN1CCN(C2=Nc3ccccc3Oc3ccc(Cl)cc32)CC1 [Loxapine succinate] | 0.895 |
| C[N+]1(C)CCC(OC(=O)C(O)(c2ccccc2)C2CCCC2)C1 (centres undefined) [Glycopyrrolate] | 1.01 |
| O=C(Nc1cccc(Cl)c1)c1ccccn1 | 0.968 |
| Clc1ccc(CCC(Cn2ccnc2)Sc2c(Cl)cccc2Cl)cc1 (centres undefined) [Butoconazole nitrate] | 1.03 |
| C[C@@]1(C(=O)Nc2ccc(F)nc2)CCCN1c1nc(Nc2cc(C3CC3)n[nH]2)c2cccn2n1 | 0.929 |
| N[C@H](C(=O)O)c1ccc(O)c(C(=O)O)c1 [(S)-3-Carboxy-4-hydroxyphenylglycine] | 1.1 |
| N#Cc1ccc(C(c2ccc(C#N)cc2)n2cncn2)cc1 [Letrozole] | 0.939 |
